Measurements reported in PubChem BioAssay AID1224830 (NIAID, 2016).
The deposit covers about 18,000 reagents; shown is an unselected part. About 2,900 of them (16%) count as active. 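Calls are made per well; low scores hint the gene aids the LPS response, high scores that it dampens it.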 Repeated entries: four replicate wells of each siRNA pool.

Test: 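Regulators of TLR4 signalling towards TNF-alpha in macrophage-like cells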 (primary screen)
System: human THP-1 monocytic leukaemia cells, TNF dual-luciferase reporter clone, PMA-differentiated to macrophage-like cells
Reagents: siRNA pool against human genes, 50 nM
Duration: LPS for 4 h, given about 3 days after siRNA transfection
Treatment: bacterial LPS (TLR4 ligand), 10 ng/ml
Read-out: 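TNF firefly reporter luminescence divided by renilla, normalised to the plate median, then turned into a robust z-score for each replicate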
Direction: TNF reporter robust z-score: higher = stronger TNF reporter response to LPS
Call rule: 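Each well counts as active if its z-score is over 2.8 or under -1.5; controls are left without a call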

The first 3 records, ahead of the listing:
gene	TNF reporter robust z-score	Call
PODXL	-0.46	inactive
PODXL	0.05	inactive
PODXL	0.18	inactive

The list itself, from the start:
gene	TNF reporter robust z-score	Call
PODXL	-0.46	inactive
PODXL	0.05	inactive
PODXL	0.18	inactive
PODXL	-0.12	inactive
USP15	-0.97	inactive
USP15	0.12	inactive
USP15	0.11	inactive
USP15	-0.27	inactive
SPTBN4	-0.1	inactive
SPTBN4	-0.23	inactive
SPTBN4	-0.01	inactive
SPTBN4	-0.35	inactive
MDC1	-0.8	inactive
MDC1	-0.1	inactive
MDC1	-0.23	inactive
MDC1	0.91	inactive
COL2A1	0.3	inactive
COL2A1	0.45	inactive
COL2A1	0.97	inactive
STAMBP	-0.12	inactive
STAMBP	0.51	inactive
STAMBP	0.67	inactive
STAMBP	0.93	inactive
NUCB1	2.78	inactive
NUCB1	2.16	inactive
NUCB1	1.93	inactive
NUCB1	1.14	inactive
SLC22A1	0.35	inactive
SLC22A1	0.02	inactive
SLC22A1	-0.7	inactive
SLC22A1	1.38	inactive
NR2C2AP	2.02	inactive
NR2C2AP	3.07	active
NR2C2AP	1.32	inactive
NR2C2AP	1.09	inactive
TAS2R19	0.01	inactive
TAS2R19	0.45	inactive
TAS2R19	0.33	inactive
TAS2R19	-0.12	inactive
VNN1	1.15	inactive
VNN1	1.68	inactive
VNN1	0.33	inactive
VNN1	2.34	inactive
TFEC	0.78	inactive
TFEC	1.12	inactive
TFEC	1.36	inactive
TFEC	-0.01	inactive
POLR3C	2.52	inactive
POLR3C	2.15	inactive
POLR3C	1.64	inactive
POLR3C	2.07	inactive
SLC20A2	2.84	active
SLC20A2	2.96	active
SLC20A2	2.26	inactive
SLC20A2	3.77	active
PTPRM	0.28	inactive
PTPRM	0.64	inactive
PTPRM	0.9	inactive
PTPRM	0.86	inactive
GABRB1	-0.31	inactive
GABRB1	-0.08	inactive
GABRB1	-0.66	inactive
GABRB1	-0.25	inactive
PARP12	0.79	inactive
PARP12	0.73	inactive
PARP12	2.5	inactive
PARP12	2.92	active
PKIA	-0.26	inactive
PKIA	-0.84	inactive
PKIA	-0.92	inactive
PKIA	0.12	inactive
GFRA1	-0.2	inactive
GFRA1	0.19	inactive
GFRA1	-0.6	inactive
GFRA1	-0.08	inactive
PLXNA1	-1.34	inactive
PLXNA1	-1.28	inactive
PLXNA1	-1.89	active
PLXNA1	-1.38	inactive
LSM1	-0.74	inactive
LSM1	-0.61	inactive
LSM1	-1.53	active
LSM1	-0.34	inactive
MLXIP	0.07	inactive
MLXIP	-0.39	inactive
MLXIP	-0.56	inactive
MLXIP	0.01	inactive
DDX55	-0.05	inactive
DDX55	0.71	inactive
DDX55	0.58	inactive
DDX55	1.24	inactive
STARD8	-0.72	inactive
STARD8	-0.43	inactive
STARD8	-0.07	inactive
STARD8	0.27	inactive
TAF12	-1.82	active
TAF12	-1.49	inactive
TAF12	-1.21	inactive
TAF12	-0.29	inactive
VPS11	-1.42	inactive
VPS11	3.06	active
VPS11	0.05	inactive
VPS11	1.21	inactive
RGS2	-0.1	inactive
RGS2	-0.25	inactive
RGS2	0.34	inactive
RGS2	0.44	inactive
GBP3	-0.71	inactive
GBP3	-0.61	inactive
GBP3	-0.35	inactive
GBP3	-0.95	inactive
IMMP2L	0.84	inactive
IMMP2L	2.33	inactive
IMMP2L	0.19	inactive
IMMP2L	0.74	inactive
TMEM132A	-1.66	active
TMEM132A	-1.02	inactive
TMEM132A	-0.91	inactive
TMEM132A	-1.11	inactive
IKZF1	-0.12	inactive
IKZF1	0.05	inactive
IKZF1	-0.45	inactive
IKZF1	0.55	inactive
GML	-1.12	inactive
GML	0.21	inactive
GML	-0.3	inactive
GML	-0.14	inactive
RPF1	-0.94	inactive
RPF1	-0.81	inactive
RPF1	-1.22	inactive
RPF1	-1.04	inactive
TRIM37	-0.93	inactive
TRIM37	-1.71	active
TRIM37	-0.65	inactive
TRIM37	-0.88	inactive
ZPBP2	-1.12	inactive
ZPBP2	-1.19	inactive
ZPBP2	0.96	inactive
ZPBP2	-0.02	inactive
ADCY4	0.88	inactive
ADCY4	-0.42	inactive
ADCY4	1.07	inactive
ADCY4	0.45	inactive
